From ChEMBL document CHEMBL3988442, “University of Dundee, Small-Polar-MMV Screening Library” (2021).

The chains behind the UniProt entries cited, without tags or fusion partners.
UniProt P9WNZ1, whole entry: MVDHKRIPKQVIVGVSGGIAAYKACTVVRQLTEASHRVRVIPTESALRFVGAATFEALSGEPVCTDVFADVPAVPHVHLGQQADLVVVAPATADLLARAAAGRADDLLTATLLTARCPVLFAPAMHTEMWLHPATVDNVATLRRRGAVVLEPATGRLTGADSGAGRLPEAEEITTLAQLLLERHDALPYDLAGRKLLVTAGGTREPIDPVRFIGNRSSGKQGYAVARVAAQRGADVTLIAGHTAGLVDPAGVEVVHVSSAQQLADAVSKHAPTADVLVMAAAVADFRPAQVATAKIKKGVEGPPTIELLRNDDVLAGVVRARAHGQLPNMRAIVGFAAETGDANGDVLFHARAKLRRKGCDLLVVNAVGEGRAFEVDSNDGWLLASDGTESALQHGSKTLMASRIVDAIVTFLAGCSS

The filed quantity is “Percent Effect” (%). How 0% and 100% were set is not recorded. Most values in the screen are low, and negative values occur. This is an unselected part of the compounds tested. A dash means the value is not listed here; it may have been measured.

A: 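Cell assay of Leishmania donovani living inside macrophages; the read-out is not stated. Compounds at 30 µM. The record gives no direction; compounds that gave an IC50 in retests scored well above the rest, so higher reads as stronger inhibition. Size under these conditions: about 69,000 compounds, about 1,000 of them at 50% or above in at least one test.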
B: 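Coenzyme A biosynthesis protein CoaBC, Mycobacterium tuberculosis (UniProt P9WNZ1). Enzyme assay of CoaBC with a phosphate dye (Biomol Green) read at 650 nm. Concentration: 30 µM. Direction is inferred from only a few compounds that gave an IC50; most scored high, so higher reads as stronger inhibition. Most strong results did not repeat in a second test. About 67,000 compounds were tested under these conditions; 0.06% (about 40) showed 50% or more at least once.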

| SMILES | A | B |
|---|---|---|
| `COc1cc(NCc2c(C)noc2C)c(C(=O)N(C)C)cc1OC` | 30.43 | -5.357 |
| `COCc1nc2c(o1)CN(C(=O)NCc1ccccc1)C2` | 27.16 | 13.32 |
| `Cc1cc(CN2CC[C@H]3[C@H]2CCN3S(C)(=O)=O)oc1C` | - | 4.326 |
| `O=C(NCCN1CCCC(CO)C1)c1ccc2scnc2c1` (stereo not shown) | 26.95 | 1.932 |
| `Cc1c(NC(=O)c2ncn[nH]2)cccc1C(=O)NC(C)(C)C` | -1.325 | 3.145 |
| `Cc1cnn(CC(C)NCc2nc(-c3cccnc3)no2)c1` (stereo not shown) | -32.72 | -0.8439 |
| `O=C(c1ccc(S(=O)(=O)NCc2ccon2)cc1)N1CCCCCC1` | 8.46 | -1.794 |
| `CC(NC1(CNC(=O)Cn2cccn2)CCOCC1)c1ccccc1` (stereo not shown) | 7.05 | 11.01 |
| `O=C(Nc1ccc(F)cc1)C1CCN(Cc2noc(C3CC3)n2)CC1` | 25.2 | 7.595 |
| `CC(C)C1CN(C(=O)c2ccccc2)CCS1` (stereo not shown) | -6.451 | -1.096 |
| `O=c1c2cccc(C(F)(F)F)c2ncn1C1CCNC1` (stereo not shown) | -19.65 | -0.4963 |
| `CCc1noc(CN2CCC(C(=O)Nc3cnn(CC)c3)CC2)n1` | 23.04 | 4.596 |
| `C1=CCN(c2nc(CC3CC3)nc3c2CCN(C2CCOCC2)CC3)C1` | 21.71 | 1.08 |
| `COc1nc(C)c(C(=O)N2CCc3[nH]nc(C4CCCC4)c3C2)s1` | 26.66 | -5.934 |
| `COc1ccc(CC(=O)N2CCC3(CC2)CCN(CC(C)C)C3=O)cc1` | -7.571 | -1.931 |
| `CSc1c(CC(=O)O)n(C)c2ccccc12` | -6.767 | -5.189 |
| `CN(C)C(=O)CN1CC[C@@H]2O[C@@H](COCc3cccnc3)CC[C@@H]21` | - | -0.618 |
| `O=C(O)C(F)(F)F.[H][C@@]12CCN(CC3CC3)[C@@]1([H])CCN2C(=O)c1cccc(C#N)c1` | -2.778 | - |
| `Cc1nc(CC(=O)NCCN2CCC(c3ccccc3C)C2)cs1` (stereo not shown) | 13.11 | -0.3659 |
| `Cc1cnc(N2CCC3(CC2)CC3CNC(=O)N(C)C)nc1` (stereo not shown) | 16.34 | 4.277 |
| `CC(=O)NCC(=O)N1CCc2nc(-c3ccccc3)nc(C)c2CC1` | 20.88 | - |
| `Fc1ccc2[nH]c(C3CCCN3Cc3c[nH]cn3)nc2c1` (stereo not shown) | 25.44 | 5.854 |
| `CCOc1ccc(CN2CCc3nc4ccsc4c(=O)n3CC2)cc1.Cl` | -3.658 | - |
| `Cc1cccnc1CN1CCOC(Cc2cccc3ccccc23)C1` (stereo not shown) | 26.18 | 16.24 |
| `Cc1cccc(-c2nnn3c2COC(CNS(=O)(=O)C2CC2)C3)c1` (stereo not shown) | 22.22 | -0.4926 |
| `CN(C)CCN(Cc1ccc(F)cc1)C(=O)c1ccn(C)c(=O)c1` | 8.361 | 3.648 |
| `O=C(NCC(=O)N1CCCC(n2cncn2)C1)OCc1ccccc1` (stereo not shown) | 22 | -2.91 |
| `Fc1cnc(N2CCCC3(CN(Cc4ccncc4)CCO3)C2)nc1.O=C(O)C(F)(F)F.O=C(O)C(F)(F)F` (stereo not shown) | 8.738 | - |
| `[H][C@]12CC[C@@]3(N=C(CC)NC3=O)[C@@]1([H])CN(C(=O)NCc1ccccc1)C2` | 11.29 | - |
| `CN(C)C(=O)COc1ccccc1CN1CCOC2(CCCC2)C1` | 15.81 | 4.497 |
| `CCc1nc(CN(C)CC2CCN(CC(C)O)CC2)no1` (stereo not shown) | 20.21 | -36.46 |
| `O=C([C@@H]1Cc2[nH]cnc2CN1CC1CC1)N1CCCC1` | 7.753 | -5.643 |
| `CNC(=O)NCC(CO)Cc1cccc(OC(F)(F)F)c1` (stereo not shown) | 36.55 | 1.446 |
| `CC(C)NC(=O)CN(C)CC(=O)/N=c1/cc[nH]n1C(C)C1CC1` (stereo not shown) | -17.43 | -2.451 |
| `Cc1nn(C)c(N2CCOCC2)c1CNCc1ccc(Cl)s1` | 17.07 | -0.5128 |
| `NC(=O)C1(c2cnccn2)CCCN1Cc1ccc(F)c(F)c1` (stereo not shown) | 22.6 | 1.716 |
| `COCc1ncn2c1CN(S(=O)(=O)c1cccs1)CCC2` | -15.48 | -1.954 |
| `CCCN(Cc1ccccn1)Cc1ccccc1OC` | 22.66 | -12.68 |
| `Cc1cc(F)ccc1N1CCCC(Nc2nccn3cnnc23)C1=O` (stereo not shown) | -6.383 | -6.234 |
| `CC(C)c1ccc2c(c1)CCCN2C(=O)CN(C)S(C)(=O)=O` | -10.39 | -2.433 |
| `Cc1cccc(CN2C[C@@H]3OCCN(c4ccnc(N(C)C)n4)[C@@H]3C2)c1` | - | 2.746 |
| `COc1cc(F)ccc1-c1ncccc1NC(=O)C(C)C` | 14.56 | 0.6494 |
| `CN(CC(=O)NC(Cc1ccsc1)c1cccnc1)Cc1ccccn1.Cl` (stereo not shown) | 37.79 | - |
| `O=C(c1cnc(O)cn1)N1C[C@@H]2CC[C@H](C1)N(Cc1ccccc1)C2` | - | 5.654 |
| `O=C(NCCSCc1ccc(Br)s1)C1CCCN(C(=O)c2cccs2)C1` (stereo not shown) | 30.08 | 0 |
| `NCCn1cc(C(=O)N2CCNC(=O)C2c2cccc(F)c2)nn1` (stereo not shown) | 12.98 | -7.83 |
| `O=C(O)C(F)(F)F.[H][C@]12CO[C@H](CN(C)C)[C@@]1([H])CCN(C(=O)NCc1cccc(F)c1)C2` | 5.097 | - |
| `CCN(Cc1cccc2c1OCCO2)C(=O)NC(C)(C)C` | 16.38 | 3.808 |
| `Cc1ccc(CS(=O)(=O)Cc2nc(N)nc(N(C)C)n2)cc1` | 7.923 | -5.242 |
| `COC(CNC(=O)C1CCN(S(C)(=O)=O)CC1)c1ccc(C)s1` (stereo not shown) | 1.65 | 1.022 |
| `COc1ccccc1S(=O)(=O)N1CCC2(CC1)OCCCC2O` (stereo not shown) | 24.92 | 0.9828 |
| `CCN(C)S(=O)(=O)NCC(C)(O)c1ccsc1` (stereo not shown) | -8.587 | -16.3 |
| `COc1cccc(Cn2cc(C3=CCN(CCO)CC3)cn2)c1` | 22.79 | 7.901 |
| `O=C([C@H]1C[C@H]2OCC[C@H]2N(Cc2ccc(F)cc2)C1)N1CCCCO1` | - | -1.25 |
| `Nc1ccnc(CNc2cc(F)ccc2OCC2CCCO2)n1` (stereo not shown) | 22.28 | 3.846 |
| `CCc1noc(CN2CCN(C(=O)OC(C)(C)C)C(C)C2)n1` (stereo not shown) | 13.34 | -5.732 |
| `O=C(CN(CC(O)c1ccc(F)cc1)C1CC1)NCc1cccs1` (stereo not shown) | 6.479 | 0.6402 |
| `CC(=O)N1CCC(NC(=O)N2CCCC2c2ccsc2)CC1` (stereo not shown) | -2.983 | -5.353 |
| `CN(CC(=O)N1CCN(CC(C)(C)O)CC1)c1ccc(Cl)cn1` | 8.364 | 0.2296 |
| `COc1ccccc1OCCc1nnc(NC(=O)C2CC23CCC3)s1` (stereo not shown) | -58.43 | -31.23 |
| `CSCC[C@@H](CO)Nc1nc(-c2ccccn2)nc2c1c(C)nn2C` | -11.25 | 1.29 |
| `CCc1nc(NCCc2nc(C)c(C)s2)c2cnn(C)c2n1` | 6.314 | -1.148 |
| `COc1ccc(C(=O)NCC(c2cccn2C)N2CCCC2)cc1OC` (stereo not shown) | -5.953 | 3.294 |
| `CO[C@H]1CCN(c2nnc(C)s2)C[C@@H]1Cc1cccc(C)c1` | - | -1.935 |
| `C[S+]([O-])c1nncn1CC(=O)c1cccc(Br)c1` (stereo not shown) | 5.576 | 7.725 |
| `COc1ccc(CN2CCC3(CC(=O)N(c4cncnc4)C3)C2)cc1` (stereo not shown) | - | 6.427 |
| `O=C(c1ccc[nH]1)N1CCCn2cnc(COCC3CC3)c2C1` | 7.674 | 3.09 |
| `[H][C@]12CCN(C(=O)c3cc(C)oc3C)C[C@@]1([H])OCCN(C(C)=O)C2` | -10.65 | - |
| `CN(C)C(CNC(=O)OCC(F)(F)F)c1ccsc1` (stereo not shown) | 18.21 | 9.489 |
| `Cc1ccn(-c2ccc(NCc3ccccc3F)nn2)n1` | 19.58 | 12.81 |
| `COc1ccc(C2=Nn3c(CN)nnc3-c3ccccc3C2)cc1` | 36.2 | 8.228 |
| `Cc1cc(NC(=O)CN2CCc3nn(C)c(=O)cc3C2)no1` | -22.15 | 16.37 |
| `Cc1ccccc1-c1cccc(CN2C[C@H]3C(=O)NC[C@@]3(C(=O)O)C2)c1` | - | 2.621 |

The first 9 entries again:

SMILES	A	B
COc1cc(NCc2c(C)noc2C)c(C(=O)N(C)C)cc1OC	30.43	-5.357
COCc1nc2c(o1)CN(C(=O)NCc1ccccc1)C2	27.16	13.32
Cc1cc(CN2CC[C@H]3[C@H]2CCN3S(C)(=O)=O)oc1C	-	4.326
O=C(NCCN1CCCC(CO)C1)c1ccc2scnc2c1 (stereo not shown)	26.95	1.932
Cc1c(NC(=O)c2ncn[nH]2)cccc1C(=O)NC(C)(C)C	-1.325	3.145
Cc1cnn(CC(C)NCc2nc(-c3cccnc3)no2)c1 (stereo not shown)	-32.72	-0.8439
O=C(c1ccc(S(=O)(=O)NCc2ccon2)cc1)N1CCCCCC1	8.46	-1.794
CC(NC1(CNC(=O)Cn2cccn2)CCOCC1)c1ccccc1 (stereo not shown)	7.05	11.01
O=C(Nc1ccc(F)cc1)C1CCN(Cc2noc(C3CC3)n2)CC1	25.2	7.595